The reference is the same well before dosing, and untreated signal decays as well.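 Fibroblast labels denote human fibroblasts, mainly primary ones from uterus (C12385, HUF), lung (H6013), bone (Hs27A), adrenal (HADF) and skin (WS1), plus mammary HMF and breast cancer-associated Hs343T. Cancer cells are basal-like or mesenchymal-like triple-negative breast cancer lines. A hit is a response shift exceeding 3x replicate standard deviation. The tissue of the other fibroblasts is not given here.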
Test system: Hs578T
Experiment: relative JC-1 red fluorescence (viability) vs pre-drug, coculture with fibroblast (fraction); higher = more viable cancer cells
Protocol: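 JC-1 labelled TNBC cells cocultured 1:1 (1,500 cells each) with CellTrace Violet stained primary or stromal fibroblasts in 384-well plates in FluoroBrite medium, treated with one of 42 anticancer drugs at 0.1, 1, 10 or 100 uM. JC-1 red fluorescence (mitochondrial integrity in cancer cells only) was read by plate reader every 8 h for 72 h. Values are normalised to each well's pre-drug value. The stock of one drug was tenfold lower, so its dose labels may be too high.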

CC(=O)c1c(C)c2cnc(Nc3ccc(N4CCNCC4)cn3)nc2n(C2CCCC2)c1=O [Palbociclib]
relative JC-1 red fluorescence
Settings	8 h	16 h	24 h	32 h	40 h	48 h	56 h	64 h	72 h
0.1 µM	0.903	0.794	0.756	0.729	0.674	0.63	0.606	0.563	0.555
1 µM	0.8881	0.779	0.784	0.773	0.734	0.697	0.689	0.658	0.647

relative JC-1 red fluorescence
Settings	8 h	16 h	24 h	32 h	40 h	48 h	56 h	64 h	72 h
0.1 µM, coculture fibroblast: C12385	0.8463	0.716	0.699	0.612	0.564	0.5434	0.527	0.524	0.53
0.1 µM, coculture fibroblast: H6013	0.883	0.78	0.735	0.711	0.686	0.678	0.668	0.666	0.644
0.1 µM, coculture fibroblast: H6019	0.79191	0.6769	0.656	0.577	0.556	0.544	0.518	0.507	0.484
0.1 µM, coculture fibroblast: H6076	0.9339	0.835	0.812	0.8	0.771	0.774	0.756	0.761	0.758
0.1 µM, coculture fibroblast: H6231	0.922	0.829	0.738	0.6856	0.617	0.587	0.536	0.508	0.484
0.1 µM, coculture fibroblast: HADF	0.909	0.843	0.799	0.769	0.737	0.711	0.684	0.678	0.656
0.1 µM, coculture fibroblast: HCFa	0.8772	0.787	0.735	0.688	0.627	0.606	0.571	0.552	0.51
0.1 µM, coculture fibroblast: HCPF	0.943	0.858	0.825	0.788	0.743	0.721	0.684	0.639	0.607
0.1 µM, coculture fibroblast: HHSteC	0.915	0.801	0.74	0.689	0.635	0.606	0.577	0.55	0.514
0.1 µM, coculture fibroblast: HMF	0.907	0.815	0.78	0.767	0.716	0.706	0.67	0.65	0.636
0.1 µM, coculture fibroblast: HPFa	0.92	0.83	0.7587	0.707	0.656	0.622	0.581	0.551	0.511
0.1 µM, coculture fibroblast: HUF	0.876	0.758	0.695	0.592	0.518	0.48	0.445	0.43	0.419
0.1 µM, coculture fibroblast: Hs27A	0.923	0.885	0.859	0.8169	0.765	0.7568	0.72	0.705	0.655
0.1 µM, coculture fibroblast: Hs343T	0.916	0.775	0.774	0.767	0.709	0.693	0.671	0.659	0.664
0.1 µM, coculture fibroblast: WS1	0.8318	0.697	0.6429	0.556	0.498	0.477	0.456	0.456	0.456
1 µM, coculture fibroblast: C12385	0.861	0.75	0.764	0.698	0.654	0.642	0.627	0.627	0.629
1 µM, coculture fibroblast: H6013	0.8726	0.839	0.8144	0.803	0.778	0.785	0.776	0.775	0.757
1 µM, coculture fibroblast: H6019	0.802	0.73	0.737	0.646	0.616	0.594	0.563	0.539	0.517
1 µM, coculture fibroblast: H6076	0.925	0.831	0.8157	0.8086	0.77	0.784	0.781	0.768	0.777
1 µM, coculture fibroblast: H6231	0.904	0.837	0.8	0.778	0.727	0.712	0.678	0.65	0.635
1 µM, coculture fibroblast: HADF	0.9198	0.868	0.813	0.793	0.772	0.754	0.721	0.717	0.691
1 µM, coculture fibroblast: HCFa	0.877	0.853	0.835	0.82	0.779	0.783	0.758	0.748	0.709
1 µM, coculture fibroblast: HCPF	0.938	0.872	0.871	0.848	0.806	0.801	0.793	0.7601	0.7296
1 µM, coculture fibroblast: HHSteC	0.957	0.9105	0.882	0.866	0.824	0.811	0.797	0.786	0.756
1 µM, coculture fibroblast: HMF	0.9032	0.8117	0.7738	0.75909	0.7088	0.69	0.664	0.639	0.6299
1 µM, coculture fibroblast: HPFa	0.961	0.8789	0.814	0.77	0.735	0.699	0.649	0.625	0.581
1 µM, coculture fibroblast: HUF	0.898	0.8042	0.8086	0.717	0.673	0.643	0.614	0.607	0.602
1 µM, coculture fibroblast: Hs27A	0.9294	0.882	0.8729	0.8531	0.8127	0.8048	0.7615	0.767	0.715
1 µM, coculture fibroblast: Hs343T	0.956	0.847	0.826	0.79968	0.7442	0.717	0.689	0.66	0.649
1 µM, coculture fibroblast: WS1	0.81	0.716	0.664	0.591	0.544	0.525	0.502	0.5	0.503

Source: the supplement of paper PMC6078165
